Assay results reported in the supplement of paper PMC6078165.

Tested on: BT20
Test: relative JC-1 red fluorescence (viability) vs pre-drug, coculture with fibroblast (fraction); higher = more viable cancer cells
Conditions: 10 µM
Experimental: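 JC-1 labelled TNBC cells cocultured 1:1 (1,500 cells each) with CellTrace Violet stained primary or stromal fibroblasts in 384-well plates in FluoroBrite medium, treated with one of 42 anticancer drugs at 0.1, 1, 10 or 100 uM. JC-1 red fluorescence (mitochondrial integrity in cancer cells only) was read by plate reader every 8 h for 72 h. Values are normalised to each well's pre-drug value. The stock of one drug was tenfold lower, so its dose labels may be too high.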

CO[C@H]1C[C@@H]2CC[C@@H](C)[C@@](O)(O2)C(=O)C(=O)N2CCCC[C@H]2C(=O)O[C@H]([C@H](C)C[C@@H]2CC[C@@H](O)[C@H](OC)C2)CC(=O)[C@H](C)/C=C(\C)[C@@H](O)[C@@H](OC)C(=O)[C@H](C)C[C@H](C)/C=C/C=C/C=C/1C [Rapamycin]
relative JC-1 red fluorescence
Conditions | 8 h | 16 h | 24 h | 32 h | 40 h | 48 h | 56 h | 64 h | 72 h
coculture fibroblast: C12385 | 0.826 | 0.81 | 0.84 | 0.841 | 0.804 | 0.787 | 0.755 | 0.722 | 0.705
coculture fibroblast: H6013 | 0.853 | 0.857 | 0.924 | 0.854 | 0.88 | 0.859 | 0.822 | 0.881 | 0.779
coculture fibroblast: H6019 | 0.7783 | 0.691 | 0.677 | 0.6581 | 0.645 | 0.651 | 0.656 | 0.661 | 0.674
coculture fibroblast: H6076 | 0.844 | 0.961 | 0.925 | 0.909 | 0.888 | 0.848 | 0.824 | 0.805 | 0.765
coculture fibroblast: H6231 | 0.861 | 0.802 | 0.891 | 0.866 | 0.972 | 0.925 | 0.895 | 0.84 | 0.801
coculture fibroblast: HADF | 0.9156 | 0.861 | 0.834 | 0.824 | 0.8892 | 0.85 | 0.748 | 0.872 | 0.971
coculture fibroblast: HCFa | 0.927 | 0.895 | 0.783 | 0.75 | 0.807 | 0.821 | 0.839 | 0.833 | 0.811
coculture fibroblast: HCPF | 0.876 | 0.9797 | 0.9471 | 0.906 | 0.856 | 0.812 | 0.759 | 0.734 | 0.677
coculture fibroblast: HHSteC | 0.886 | 0.878 | 0.908 | 0.869 | 0.848 | 0.824 | 0.797 | 0.779 | 0.758
coculture fibroblast: HMF | 0.893 | 0.934 | 0.889 | 0.859 | 0.8274 | 0.774 | 0.737 | 0.696 | 0.66
coculture fibroblast: HPFa | 0.93 | 0.783 | 0.839 | 0.758 | 0.764 | 0.757 | 0.765 | 0.861 | 0.805
coculture fibroblast: HUF | 0.881 | 0.869 | 0.893 | 0.854 | 0.818 | 0.775 | 0.744 | 0.7202 | 0.706
coculture fibroblast: Hs5 | 0.795 | 0.922 | 0.962 | 0.942 | 0.897 | 0.864 | 0.812 | 0.784 | 0.761
coculture fibroblast: Hs27A | 0.905 | 0.904 | 0.876 | 0.829 | 0.959 | 0.838 | 0.945 | 0.88 | 0.892
coculture fibroblast: Hs343T | 0.941 | 0.954 | 0.902 | 0.86322 | 0.854 | 0.815 | 0.745 | 0.74 | 0.694
coculture fibroblast: WS1 | 0.78938 | 0.7194 | 0.721 | 0.704 | 0.68 | 0.665 | 0.648 | 0.624 | 0.606

Values are relative to the signal before dosing, not to a vehicle control; the signal also falls without drug.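 Fibroblast labels name human fibroblasts: mostly primary ones from tissues such as uterus (C12385, HUF), lung (H6013), bone (Hs27A), adrenal (HADF) and skin (WS1), plus mammary HMF and breast cancer-associated Hs343T. The cancer cells are basal-like or mesenchymal-like triple-negative breast cancer lines. The paper calls a changed response a hit when it shifts by more than 3x the replicate standard deviation. The tissue of the other fibroblasts is not given here.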
